The values below come from publication PMC5996148.

Some test systems named below: CRLF3 (human); CROP (human); CROT (human); CRTAC1 (human); CRY1 (human); CRYAA (human); CRYBA1 (human); CRYBB2 (human); CRYZL1 (human).
What all share (experiment): protein microarray (ProtoArray v5.0), streptavidin-Alexa Fluor 647
Conditions in all cases: 3'-biotin; 20 mM Tris (pH 7.5), 5 mM MgCl2, 100 mM KCl, 0.1% Tween-20, A/T-rich and random oligonucleotide blockers; temperature not stated; high values mean tight binding

Another assay concerns the target T1, CRYZ (UniProt Q08257).
T1 sequence: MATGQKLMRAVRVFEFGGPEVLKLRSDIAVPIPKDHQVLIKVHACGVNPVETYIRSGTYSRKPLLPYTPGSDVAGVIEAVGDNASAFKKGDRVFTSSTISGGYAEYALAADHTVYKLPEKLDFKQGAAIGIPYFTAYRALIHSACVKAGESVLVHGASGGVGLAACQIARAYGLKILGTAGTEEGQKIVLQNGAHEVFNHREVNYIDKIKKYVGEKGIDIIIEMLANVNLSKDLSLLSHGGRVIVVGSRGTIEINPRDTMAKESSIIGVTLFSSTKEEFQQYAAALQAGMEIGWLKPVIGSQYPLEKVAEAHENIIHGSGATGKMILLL

This is one part of the list. For some of these results: The exact form of the protein is not confirmed.

As for “GGGAGGCTGAGGCAGG [G4-1 biotinylated (PQS2)]”, the binding signal in the assay with CRLF3 (human) is -0.342 z-score; in the assay with CROP (human), -0.332 z-score; in the assay on CROT (human), -0.288 z-score; in the assay on CRTAC1 (human), -0.301 z-score; with CRY1 (human), -0.3 z-score; in the assay with CRYAA (human) it was -0.336 z-score. Also, the binding signal in the assay on CRYBA1 (human) is -0.341 z-score; in the assay on CRYBB2 (human), -0.235 z-score; with CRYZ, -0.319 z-score; in the assay with CRYZL1 (human) it was -0.301 z-score.
